This is one part of the list.

Amino acid sequences for entries named in this document (tags omitted). A change or cut given only in a name is not applied to a line headed by its entry.
UniProt O75592: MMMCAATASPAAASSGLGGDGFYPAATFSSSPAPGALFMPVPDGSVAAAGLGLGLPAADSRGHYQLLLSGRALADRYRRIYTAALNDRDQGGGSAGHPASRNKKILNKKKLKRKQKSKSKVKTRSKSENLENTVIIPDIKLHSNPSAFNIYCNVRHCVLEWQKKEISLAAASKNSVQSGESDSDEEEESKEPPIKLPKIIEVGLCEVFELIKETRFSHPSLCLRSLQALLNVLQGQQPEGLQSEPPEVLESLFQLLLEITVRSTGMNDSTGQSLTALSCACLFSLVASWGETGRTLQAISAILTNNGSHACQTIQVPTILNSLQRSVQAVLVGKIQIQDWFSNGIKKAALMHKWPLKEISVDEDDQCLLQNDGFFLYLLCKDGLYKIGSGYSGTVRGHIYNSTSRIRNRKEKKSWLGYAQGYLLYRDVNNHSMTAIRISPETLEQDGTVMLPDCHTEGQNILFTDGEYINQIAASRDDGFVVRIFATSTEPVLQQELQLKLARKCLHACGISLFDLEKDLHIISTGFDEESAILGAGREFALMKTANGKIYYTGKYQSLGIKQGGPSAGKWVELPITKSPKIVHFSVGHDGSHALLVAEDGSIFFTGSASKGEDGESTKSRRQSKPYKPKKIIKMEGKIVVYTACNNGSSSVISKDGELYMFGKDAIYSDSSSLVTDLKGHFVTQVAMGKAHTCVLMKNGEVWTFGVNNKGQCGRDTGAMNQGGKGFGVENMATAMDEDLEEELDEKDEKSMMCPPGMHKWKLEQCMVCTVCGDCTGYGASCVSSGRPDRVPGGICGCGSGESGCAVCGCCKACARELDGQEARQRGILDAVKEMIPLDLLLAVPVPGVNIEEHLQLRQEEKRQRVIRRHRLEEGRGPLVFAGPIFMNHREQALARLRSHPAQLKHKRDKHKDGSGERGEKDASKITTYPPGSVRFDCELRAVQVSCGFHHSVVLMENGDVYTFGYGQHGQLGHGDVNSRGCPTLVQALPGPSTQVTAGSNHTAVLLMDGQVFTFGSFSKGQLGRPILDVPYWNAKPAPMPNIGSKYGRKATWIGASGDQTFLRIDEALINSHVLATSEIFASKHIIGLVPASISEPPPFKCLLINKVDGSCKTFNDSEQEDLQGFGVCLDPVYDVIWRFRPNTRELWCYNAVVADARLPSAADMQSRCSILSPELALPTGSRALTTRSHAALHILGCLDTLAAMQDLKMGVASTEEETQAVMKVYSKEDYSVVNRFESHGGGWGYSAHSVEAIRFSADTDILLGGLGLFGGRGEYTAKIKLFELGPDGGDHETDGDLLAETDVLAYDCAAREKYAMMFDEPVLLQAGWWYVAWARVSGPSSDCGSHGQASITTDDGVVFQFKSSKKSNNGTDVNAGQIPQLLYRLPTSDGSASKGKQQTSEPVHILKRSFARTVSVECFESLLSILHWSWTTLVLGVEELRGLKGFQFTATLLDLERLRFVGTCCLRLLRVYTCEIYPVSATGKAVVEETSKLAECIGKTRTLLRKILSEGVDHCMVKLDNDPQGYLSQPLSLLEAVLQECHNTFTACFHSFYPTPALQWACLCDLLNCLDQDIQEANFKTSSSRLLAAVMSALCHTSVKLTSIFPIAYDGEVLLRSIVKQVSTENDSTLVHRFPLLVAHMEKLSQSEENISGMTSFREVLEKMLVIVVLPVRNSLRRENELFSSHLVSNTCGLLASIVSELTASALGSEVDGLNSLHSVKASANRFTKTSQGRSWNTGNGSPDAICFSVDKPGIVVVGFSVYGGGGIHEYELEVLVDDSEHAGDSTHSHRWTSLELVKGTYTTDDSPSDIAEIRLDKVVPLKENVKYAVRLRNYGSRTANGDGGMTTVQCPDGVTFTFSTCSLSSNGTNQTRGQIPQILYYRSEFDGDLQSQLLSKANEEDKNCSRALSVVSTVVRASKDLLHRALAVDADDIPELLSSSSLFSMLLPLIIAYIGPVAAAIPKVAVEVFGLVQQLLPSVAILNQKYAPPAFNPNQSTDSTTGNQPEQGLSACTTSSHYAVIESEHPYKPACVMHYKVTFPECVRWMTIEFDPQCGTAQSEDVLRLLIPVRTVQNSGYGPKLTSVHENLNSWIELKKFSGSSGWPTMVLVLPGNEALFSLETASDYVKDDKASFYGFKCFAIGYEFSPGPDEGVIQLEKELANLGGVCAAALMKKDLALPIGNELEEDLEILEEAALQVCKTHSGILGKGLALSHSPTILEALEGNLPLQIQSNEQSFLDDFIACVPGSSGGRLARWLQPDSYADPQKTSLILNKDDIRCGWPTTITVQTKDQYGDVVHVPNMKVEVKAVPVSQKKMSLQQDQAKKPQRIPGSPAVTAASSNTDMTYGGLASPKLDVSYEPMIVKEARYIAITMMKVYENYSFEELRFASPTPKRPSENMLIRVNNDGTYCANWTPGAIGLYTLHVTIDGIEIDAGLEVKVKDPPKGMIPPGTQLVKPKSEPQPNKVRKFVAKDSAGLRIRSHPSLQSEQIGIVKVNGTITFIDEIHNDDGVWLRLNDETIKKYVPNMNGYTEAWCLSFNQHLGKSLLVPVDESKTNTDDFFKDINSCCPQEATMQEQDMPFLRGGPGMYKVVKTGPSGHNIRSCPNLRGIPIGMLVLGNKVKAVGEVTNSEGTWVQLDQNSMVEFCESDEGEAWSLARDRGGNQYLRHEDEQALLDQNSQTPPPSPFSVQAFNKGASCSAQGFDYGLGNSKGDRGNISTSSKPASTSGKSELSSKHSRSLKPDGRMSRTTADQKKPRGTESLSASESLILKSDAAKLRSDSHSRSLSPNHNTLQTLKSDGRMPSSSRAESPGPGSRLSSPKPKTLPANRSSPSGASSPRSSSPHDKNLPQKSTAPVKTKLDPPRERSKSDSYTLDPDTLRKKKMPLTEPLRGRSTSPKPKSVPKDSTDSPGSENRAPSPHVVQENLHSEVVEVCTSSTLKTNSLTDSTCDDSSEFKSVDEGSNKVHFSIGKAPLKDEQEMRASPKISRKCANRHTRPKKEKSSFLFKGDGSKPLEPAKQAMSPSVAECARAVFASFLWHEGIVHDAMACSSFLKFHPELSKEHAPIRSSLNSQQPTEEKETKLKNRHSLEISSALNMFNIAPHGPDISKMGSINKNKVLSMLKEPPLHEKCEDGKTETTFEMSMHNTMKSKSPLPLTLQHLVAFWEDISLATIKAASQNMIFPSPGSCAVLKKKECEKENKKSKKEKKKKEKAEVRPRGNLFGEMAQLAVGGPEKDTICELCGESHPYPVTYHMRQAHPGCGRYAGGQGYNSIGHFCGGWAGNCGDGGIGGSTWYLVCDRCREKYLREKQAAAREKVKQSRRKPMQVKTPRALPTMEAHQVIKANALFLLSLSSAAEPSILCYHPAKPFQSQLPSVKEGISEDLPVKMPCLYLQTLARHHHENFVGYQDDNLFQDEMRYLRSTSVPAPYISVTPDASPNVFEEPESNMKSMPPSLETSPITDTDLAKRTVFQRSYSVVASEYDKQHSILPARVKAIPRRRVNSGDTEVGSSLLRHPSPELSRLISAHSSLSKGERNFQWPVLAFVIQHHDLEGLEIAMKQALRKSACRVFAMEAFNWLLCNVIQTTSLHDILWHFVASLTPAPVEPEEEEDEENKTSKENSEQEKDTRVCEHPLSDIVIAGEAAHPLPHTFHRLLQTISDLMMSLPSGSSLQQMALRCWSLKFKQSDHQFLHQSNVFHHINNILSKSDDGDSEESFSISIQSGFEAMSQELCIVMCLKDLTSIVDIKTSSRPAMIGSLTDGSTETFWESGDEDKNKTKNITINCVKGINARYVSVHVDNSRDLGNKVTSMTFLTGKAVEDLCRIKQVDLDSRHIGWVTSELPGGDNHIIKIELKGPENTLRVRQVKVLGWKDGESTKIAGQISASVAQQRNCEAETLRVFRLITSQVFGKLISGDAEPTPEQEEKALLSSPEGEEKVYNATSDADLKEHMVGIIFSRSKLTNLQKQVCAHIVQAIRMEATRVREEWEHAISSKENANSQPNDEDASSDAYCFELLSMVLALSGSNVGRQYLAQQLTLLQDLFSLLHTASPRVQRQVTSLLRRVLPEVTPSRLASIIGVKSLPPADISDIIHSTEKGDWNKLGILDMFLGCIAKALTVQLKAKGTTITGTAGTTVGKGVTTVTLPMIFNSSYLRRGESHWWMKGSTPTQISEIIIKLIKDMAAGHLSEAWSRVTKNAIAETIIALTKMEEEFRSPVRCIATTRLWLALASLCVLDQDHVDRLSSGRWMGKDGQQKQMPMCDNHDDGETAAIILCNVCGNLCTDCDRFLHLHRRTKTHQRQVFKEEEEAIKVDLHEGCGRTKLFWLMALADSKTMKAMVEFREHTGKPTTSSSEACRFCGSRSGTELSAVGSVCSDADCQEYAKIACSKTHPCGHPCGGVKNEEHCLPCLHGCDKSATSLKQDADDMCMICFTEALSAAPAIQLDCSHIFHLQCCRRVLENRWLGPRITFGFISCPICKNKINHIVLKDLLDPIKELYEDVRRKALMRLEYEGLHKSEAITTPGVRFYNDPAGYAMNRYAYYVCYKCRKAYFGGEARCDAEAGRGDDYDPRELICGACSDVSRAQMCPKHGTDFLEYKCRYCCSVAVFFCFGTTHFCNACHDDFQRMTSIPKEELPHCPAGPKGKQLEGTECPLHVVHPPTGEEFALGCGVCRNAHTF
UniProt Q9BQG0: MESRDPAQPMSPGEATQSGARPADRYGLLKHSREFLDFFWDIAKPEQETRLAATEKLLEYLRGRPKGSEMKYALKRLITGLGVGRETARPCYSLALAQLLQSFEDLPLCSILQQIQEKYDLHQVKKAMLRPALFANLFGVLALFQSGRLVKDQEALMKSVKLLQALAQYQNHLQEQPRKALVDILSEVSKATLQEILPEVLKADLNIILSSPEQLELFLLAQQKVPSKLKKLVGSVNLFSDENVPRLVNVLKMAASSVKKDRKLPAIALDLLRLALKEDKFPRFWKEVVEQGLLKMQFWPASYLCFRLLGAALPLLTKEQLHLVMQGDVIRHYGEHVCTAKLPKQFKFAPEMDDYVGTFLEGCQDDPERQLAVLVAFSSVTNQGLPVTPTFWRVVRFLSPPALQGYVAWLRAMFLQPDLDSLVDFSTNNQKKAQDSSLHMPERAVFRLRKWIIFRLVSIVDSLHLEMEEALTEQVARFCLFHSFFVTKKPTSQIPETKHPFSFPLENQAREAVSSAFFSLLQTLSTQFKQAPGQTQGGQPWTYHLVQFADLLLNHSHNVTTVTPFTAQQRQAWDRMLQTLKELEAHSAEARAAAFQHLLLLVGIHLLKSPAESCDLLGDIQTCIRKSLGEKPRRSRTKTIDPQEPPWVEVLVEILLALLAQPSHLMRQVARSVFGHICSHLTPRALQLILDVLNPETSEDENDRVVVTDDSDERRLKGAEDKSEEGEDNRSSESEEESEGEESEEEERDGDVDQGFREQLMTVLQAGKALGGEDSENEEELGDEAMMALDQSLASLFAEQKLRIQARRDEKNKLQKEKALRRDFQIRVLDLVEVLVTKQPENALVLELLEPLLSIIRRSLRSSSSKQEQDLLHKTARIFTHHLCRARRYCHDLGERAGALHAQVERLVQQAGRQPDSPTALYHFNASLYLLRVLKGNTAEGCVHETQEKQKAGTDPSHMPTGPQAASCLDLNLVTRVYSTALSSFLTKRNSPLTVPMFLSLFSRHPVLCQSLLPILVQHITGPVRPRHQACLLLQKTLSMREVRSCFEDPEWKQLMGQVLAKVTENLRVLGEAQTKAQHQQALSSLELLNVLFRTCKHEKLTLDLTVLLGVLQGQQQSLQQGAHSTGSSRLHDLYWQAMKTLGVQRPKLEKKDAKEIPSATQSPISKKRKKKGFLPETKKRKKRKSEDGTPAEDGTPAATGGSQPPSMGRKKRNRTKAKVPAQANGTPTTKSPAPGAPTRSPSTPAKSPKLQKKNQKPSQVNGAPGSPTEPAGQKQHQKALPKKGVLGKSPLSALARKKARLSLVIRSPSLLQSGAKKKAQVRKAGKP
UniProt Q9H2W1: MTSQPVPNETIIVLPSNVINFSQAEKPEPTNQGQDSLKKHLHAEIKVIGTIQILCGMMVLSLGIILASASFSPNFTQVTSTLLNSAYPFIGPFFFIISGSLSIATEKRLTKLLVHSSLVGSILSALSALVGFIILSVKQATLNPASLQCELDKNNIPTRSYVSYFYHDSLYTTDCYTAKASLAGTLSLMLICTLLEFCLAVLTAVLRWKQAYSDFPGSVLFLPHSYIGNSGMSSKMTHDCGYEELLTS
UniProt Q9UJ68: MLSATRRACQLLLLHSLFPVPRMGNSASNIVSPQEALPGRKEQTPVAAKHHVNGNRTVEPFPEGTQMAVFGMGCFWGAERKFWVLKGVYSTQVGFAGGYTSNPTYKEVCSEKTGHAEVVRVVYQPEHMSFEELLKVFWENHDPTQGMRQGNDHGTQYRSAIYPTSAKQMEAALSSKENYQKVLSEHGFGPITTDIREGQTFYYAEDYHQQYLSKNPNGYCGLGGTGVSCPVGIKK

Compound in this test: Cc1cc(ccc1-c1ccccc1)C(=O)N1CCCN(CC1)C(=O)CCl [compound 10]
The experiment in a line: probe-labelled cysteine peptide fold change vs DMSO (competition) (log2 fold change); higher = less target engagement (more negative = stronger competition). Particulars: THP-1, incubation time: 4 h.
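Also: competitive profiling in live THP-1 cells: cysteine peptides tagged with an iodoacetamide desthiobiotin (IA-DTB) probe, intensity after compound treatment relative to DMSO-treated cells.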

As to “MTIF2_P46199_646_KKVPVAGCR (UniProt P46199)”, the “probe-labelled cysteine peptide fold change” value by setting is: (10 µM) 0.132; (50 µM) -0.272.

Take “MYCBP2_O75592_4638_EELPHCPAGPK (UniProt O75592)”: the “probe-labelled cysteine peptide fold change” value reads like this: (10 µM) -0.0986; (50 µM) -0.513.

For “MYH9_P35579_917_KQELEEICHDLEAR (UniProt P35579)”, the “probe-labelled cysteine peptide fold change” value runs as follows: (10 µM) -0.0457; (50 µM) 0.109.

“MTHFD1L_Q6UB35_778+779_EYTEENIQLVADGCCNLQK (UniProt Q6UB35)”: the “probe-labelled cysteine peptide fold change” value was 0.141 (10 µM) and -0.18 (50 µM).

For “MRPS18C_Q9Y3D5_100_HITGLCGK (UniProt Q9Y3D5)”, the “probe-labelled cysteine peptide fold change” value was 0.0835 (10 µM) and -0.0765 (50 µM).

As to “MYBBP1A_Q9BQG0_614+623_SPAESCDLLGDIQTCIR (UniProt Q9BQG0)”, the “probe-labelled cysteine peptide fold change” value by setting is: (10 µM) -0.527; (50 µM) -0.31.

“MTHFS_P49914_160_CLQHQEVKPYTLALAFK (UniProt P49914)”: the “probe-labelled cysteine peptide fold change” value (10 µM) is -0.021 and the “probe-labelled cysteine peptide fold change” value (50 µM) is -0.179.

With “MTHFD1_P11586_863_QGFGNLPICMAK (UniProt P11586)”, the “probe-labelled cysteine peptide fold change” value is, setting by setting: (10 µM) -0.0793; (50 µM) -0.213.

As to “MTA2_O94776_261_AMSTLVPQGGPVLCRDEMEEWSASEAMLFEEALEK (UniProt O94776)”, the “probe-labelled cysteine peptide fold change” value runs as follows: (10 µM) -0.0889; (50 µM) -0.0826.

“MSH6_P52701_687_SELALSALGGCVFYLK (UniProt P52701)”: the “probe-labelled cysteine peptide fold change” value by setting is: (10 µM) 0.05; (50 µM) 0.296.

“MTMR3_Q13615_81_ESLVNVPLQLIESVECR (UniProt Q13615)”: the “probe-labelled cysteine peptide fold change” value (10 µM) came out at 0.463 and the “probe-labelled cysteine peptide fold change” value (50 µM) came out at 0.198.

For the target “MYO18A_Q92614_1046_LHFVHCFLPVAEGWAGEPR (UniProt Q92614)”, the “probe-labelled cysteine peptide fold change” value reads like this: (10 µM) 0.205; (50 µM) 0.269.

With “MYBBP1A_Q9BQG0_623_SPAESCDLLGDIQTCIR (UniProt Q9BQG0)”, the “probe-labelled cysteine peptide fold change” value is, setting by setting: (10 µM) -0.0385; (50 µM) -0.16.

Regarding “MRPS30_Q9NP92_393_NICWGTQSK (UniProt Q9NP92)”, the “probe-labelled cysteine peptide fold change” value is -0.226 (10 µM) and -0.187 (50 µM).

Consider “MYCBP2_O75592_4406+4413_NEEHCLPCLHGCDK (UniProt O75592)”, for which the “probe-labelled cysteine peptide fold change” value by setting is: (10 µM) -0.28; (50 µM) -0.699.

On to “MRPS30_Q9NP92_316_QNCADQIEVVFR (UniProt Q9NP92)”, for which the “probe-labelled cysteine peptide fold change” value runs as follows: (10 µM) 0.0297; (50 µM) 0.0262.

Turning to “MTCH1_Q9NZJ7_222_CMVQFVGR (UniProt Q9NZJ7)”, the “probe-labelled cysteine peptide fold change” value reads like this: (10 µM) 0.164; (50 µM) -0.0167.

With “MYL9_P24844_109_NAFACFDEEASGFIHEDHLR (UniProt P24844)”, the “probe-labelled cysteine peptide fold change” value amounted to 0.115 (10 µM) and 0.169 (50 µM).

Take “MTA2_O94776_209_ALDCSSSIR (UniProt O94776)”: the “probe-labelled cysteine peptide fold change” value by setting is: (10 µM) 0.0887; (50 µM) -0.0822.

On to “MYBL2_P10244_196_DCKPPVYLLLELEDK (UniProt P10244)”, for which the “probe-labelled cysteine peptide fold change” value came to 0.134 (10 µM) and 0.229 (50 µM).

As for “MTPN_P58546_45_TLEGGRKPLHYAADCGQLEILEFLLLK (UniProt P58546)”, the “probe-labelled cysteine peptide fold change” value reads like this: (10 µM) -0.208; (50 µM) -0.612.

For “MYCBP2_O75592_3632_VCEHPLSDIVIAGEAAHPLPHTFHR (UniProt O75592)”, the “probe-labelled cysteine peptide fold change” value is -0.091 (10 µM) and 0.184 (50 µM).

Take “MUM1_Q2TAK8_548_GSPEEPVVGCPLGQR (UniProt Q2TAK8)”: the “probe-labelled cysteine peptide fold change” value (10 µM) was -0.198 and the “probe-labelled cysteine peptide fold change” value (50 µM) was -0.786.

With “MYEF2_Q9P2K5_546_FSQCGHVMFAEIK (UniProt Q9P2K5)”, the “probe-labelled cysteine peptide fold change” value was 0.135 (10 µM) and -0.0725 (50 µM).

On to “MTERF4_Q7Z6M4_219_ILHSCPSVLR (UniProt Q7Z6M4)”, for which the “probe-labelled cysteine peptide fold change” value by setting is: (10 µM) 0.247; (50 µM) 0.351.

In the case of “MUS81_Q96NY9_16_KRPLPACPNPLFVR (UniProt Q96NY9)”, the “probe-labelled cysteine peptide fold change” value (10 µM) was -0.274 and the “probe-labelled cysteine peptide fold change” value (50 µM) is -0.241.

Take “MTOR_P42345_1214_YDVLICR (UniProt P42345)”: the “probe-labelled cysteine peptide fold change” value (10 µM) was determined as 0.0717 and the “probe-labelled cysteine peptide fold change” value (50 µM) is -0.186.

Take “MSH2_P43246_199_ECVLPGGETAGDMGK (UniProt P43246)”: the “probe-labelled cysteine peptide fold change” value was -0.0196 (10 µM) and 0.142 (50 µM).

As for “MS4A6A_Q9H2W1_240_MTHDCGYEELLTS (UniProt Q9H2W1)”, the “probe-labelled cysteine peptide fold change” value is, setting by setting: (10 µM) -0.428; (50 µM) -0.726.

Regarding “MYCBP2_O75592_4669+4672_QLEGTECPLHVVHPPTGEEFALGCGVCR (UniProt O75592)”, the “probe-labelled cysteine peptide fold change” value runs as follows: (10 µM) -0.0938; (50 µM) 0.0189.

For the target “MTHFR_P42898_452_VTCLPWNDEPLAAETSLLK (UniProt P42898)”, the “probe-labelled cysteine peptide fold change” value reads like this: (10 µM) 0.00805; (50 µM) 0.234.

Take “MSRA_Q9UJ68_74_TVEPFPEGTQMAVFGMGCFWGAER (UniProt Q9UJ68)”: the “probe-labelled cysteine peptide fold change” value runs as follows: (10 µM) 0.0191; (50 µM) 0.487.

“MTX2_O75431_246_NYSNLLAFCR (UniProt O75431)”: the “probe-labelled cysteine peptide fold change” value was -0.0151 (10 µM) and 0.197 (50 µM).

For “MTFR2_Q6P444_50_MLPLEPCR (UniProt Q6P444)”, the “probe-labelled cysteine peptide fold change” value reads like this: (10 µM) -0.0626; (50 µM) -0.0716.

For “MSH3_P20585_166_CTDFDDISLLHAK (UniProt P20585)”, the “probe-labelled cysteine peptide fold change” value was -0.186 (10 µM) and -0.171 (50 µM).

With “MYBBP1A_Q9BQG0_884_IFTHHLCR (UniProt Q9BQG0)”, the “probe-labelled cysteine peptide fold change” value (10 µM) is 0.036 and the “probe-labelled cysteine peptide fold change” value (50 µM) worked out at 0.0211.

Take “MTM1_Q13496_444_NHTDADRSPIFLQFIDCVWQMSK (UniProt Q13496)”: the “probe-labelled cysteine peptide fold change” value is 0.108 (10 µM) and 0.0969 (50 µM).

“MVB12B_Q9H7P6_161_DSTEAAICDIR (UniProt Q9H7P6)”: the “probe-labelled cysteine peptide fold change” value worked out at 0.0873 (10 µM) and 0.189 (50 µM).

These data come from the supplement of paper PMC12067093, “Discovery and optimisation of a covalent ligand for TRIM25 and its application to targeted protein ubiquitination” (Chemical Science, 2025).
